Test results taken from paper PMC8620773.
No constants are given. Whether binding was seen depends on the method and setting. Binding seen in cells or lysates may run through a third protein. Here binding means that the protein was enriched with, or labelled near, the bait; the list need not be complete.

By UniProt entry, the sequences of proteins in these tests, tags left out.
UniProt P28066: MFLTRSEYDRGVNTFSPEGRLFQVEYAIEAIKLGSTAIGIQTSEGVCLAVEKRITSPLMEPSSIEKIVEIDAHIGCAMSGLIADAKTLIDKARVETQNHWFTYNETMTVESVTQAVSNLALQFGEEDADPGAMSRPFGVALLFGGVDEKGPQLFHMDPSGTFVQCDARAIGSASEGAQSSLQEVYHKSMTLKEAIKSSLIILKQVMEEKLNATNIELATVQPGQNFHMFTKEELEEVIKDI

Target: S16-phosphorylated α5 (human (endogenous in 293T)) (UniProt P28066)
Test: affinity purification with mass spectrometry; anti-α5-pS16 antibody and Protein G agarose, 4 °C, 1 h, lysates of 293T cells treated with nocodazole (100 ng/mL, 16 h) against aphidicolin (10 µM, 12 h) as control; label-free LC-MS/MS

Question: For “Polo-like kinase 1 (PLK1) (from UniProt P53350 1-603) (enzyme)”, which binding is on record?
Answer: binds
